For four molecules, binding results are on record in patent US20250042956A1.

The target in experiment [1] is AT5G08450.1 HDC1 (Arabidopsis thaliana). Put plainly: IP-MS.
Experiment [2] addresses MOM2 (yeast two hybrid GAL4 fusion) (Arabidopsis thaliana). Put plainly: yeast two hybrid.
Experiment [3] addresses MOM2 (Arabidopsis thaliana). Nature of the experiment: IP-MS, pPHD1:PHD1-FLAG line.

No constants are given. Whether binding was seen depends on the method and setting. A result given as binding can be weak or reduced; the word gives no strength. For some of these results: Where a sequence is shown, tags or fusion partners need not be part of it. For some of these results: Binding seen in cells or lysates may run through a third protein.

B1: TRBIP1 (bait of the TRBIP1 IP-MS) (protein, not shown: small tags and cut ends)
chain: METNPCDMNQLDSDSHLPPRKRLLAGFKKFNSNGINGSSPSDFASSSSTSNSNGSSSASTNVQTHLGNLLSSPFNNDQSPEELVEATRSAAALAVKAAKAARAIANEKALISAKAIAAAKRALELVDSFPKEAMADCKERSPRKNKQKKHVPVELLYSKGQLRDEEDDLARRLHRAIDNTSYPRVLRTSEENGQRYKKQKKNKSVVEGGSSSIIVTGSMKDIAGVVDSDSSYEGLEIARSNRDEADSMLMMEKSGEESNSLVKRRGRVKLKKLPLSICNSRNQENGTSSASPLPVAQPQEDGGAITVIAGSSSWKCQDIKAPECVKQNKAVRS
Turning to B1, in experiment [1], the binding result was “binds”.

B2: PIAL2 (yeast two hybrid GAL4 fusion) (protein, not shown: large carriers)
chain: MSTAAAARPVAGTGLREKTAASLVNSFRLASVTQRLRYHIQDGAKVDPKEFQICCISFAKGIDFAIANNDIPKKVEEFPWLLKQLCRHGTDVYTKTALMVLMISVKHACHLGWFSDSESQELIALADEIRTCFGSSGSTSPGIKSPGSTFSQIMERFYPFVKLGHVLVSFEVKAGYTMLAHDFYISKNMPHSLQEKIRLFVAQTDNIDTSACISNPPEVSFLLNGKGVEKRVNIAMDTGPQLPTNVTAQLKYGTNLLQVMGNFKGNYIIIIAFTGLVVPPEKPVLKDYLQSGVIEASPDSDIIEGPSRVSLSCPISRKRIKLPVKGQLCKHLQCFDFSNYVHINMRNPTWRCPHCNQPVCYPDIRLDQNMAKILKDVEHNAADVIIDAGGTWKVTKNTGETPEPVREIIHDLEDPMSLLNSGPVVFDLTGDDDAELEVFGDNKVEDRKPCMSDAQGQSNNNNTNKHPSNDDYSSIFDISDVIALDPEILSALGNTAPQPHQASNTGTGQQYSNLSQIPMSIDPMPVPVPFSQTPSPRDRPATTSTVFTIPNPSPQYSQVHASPVTPTGTYLGRTTSPRWNQTYQSQAPPMTTPYTSRKVSVPVTSQSPANVSSFVQSQHVPRVLSQPNNYGVRGLTSSHASTSRQHPSGPTVQSVSRLSDLVDVDLTVPDTSNWRPRMRGSLVPGSHSTALDHMIIRPSQQSQTSTRLNSSQPVQTPSVQTSQAQSPFTTAAYRTETVLGNRNHPVPAPPGIVRPTGPTS
Regarding B2, the binding result in experiment [2] is “binds”.

B3: PHD1-FLAG (protein, not shown: small tags and cut ends)
chain: MSLHVKGPVCQTCGDIGFEEALVFCDSCMFESIHRYCLGITPIPFTEYITWICEDCDNSESDSDCNEVDQTVKKKKKSRNQPLVVLAEDNVLQEPLEGSKREESSCSRKPHELTCLDGNGESVLEAADSSSVPDHSSCTSKRKEVDQTANLGHILERSEKKKKKKKKKKSINHSPPVLAVEDHELQGTTNVVEPVEVSSSSPTKETMESKRQESSDSRKPHELTCLVGDSETANSSSVPEHNSCAVKKRKLSSGNKQIQLADGSSSCRVAESNMPLTLTSRNYRAQPIKIPIWRGLMSVKGGNSCTMDGIVAHVSSLACPKVHETASSLKGRLSAEILPRLEVWPKTFLKNGGPKDESVALFFFPSSESNDEKVFDSLVDKMKKNDSAMRCVLNDAELLLFTSYMLPKDSWTFNSKYYLWGVFKPRQTSRY
In the case of B3, in experiment [3], the binding entry is given as “binds”.

B4: TRBIP2 (bait of the TRBIP2 IP-MS) (protein, not shown: small tags and cut ends)
chain: MATNACLESDSLLPPRKRLLAGFKNQNSRISNESPSPPFASSSSSTTTSNGSSASAVVHTHHLDHLLNDQTRSPEELAQASKATAALAVKVAKAARATANEKAIIASKAVAAAKNALELFASFPAAETVSCKEPRLIRAINNSPRVLTDCSGHRNKKQKTLTSTMNDGNDVAGVVDSDDGTRVNGKLLLCDNTLKEKTEEESSSLGKRRGRVKLPLSMCAYKDQENGITLEENNLSVSKSEGYNGGVAQVIERPSWKCQDLKSPECVKQNKVVRS
Turning to B4, the binding result in experiment [1] is given as “binds”.
